Small-molecule microarray binding calls

Oligonucleotides screened, 5′ to 3′:
TPP: TPP riboswitch RNA three-way junction, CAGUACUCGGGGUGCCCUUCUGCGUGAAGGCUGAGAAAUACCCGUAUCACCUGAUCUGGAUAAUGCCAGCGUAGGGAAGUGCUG. About 160 hits among about 24,000 compounds.
PreQ1: PreQ1 riboswitch RNA pseudoknot, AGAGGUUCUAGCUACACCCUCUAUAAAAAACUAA. From B. subtilis. About 170 hits among about 24,000 compounds.
SAM-II: SAM-II riboswitch RNA pseudoknot, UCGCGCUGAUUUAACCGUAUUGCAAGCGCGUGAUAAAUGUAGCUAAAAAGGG. About 200 hits among about 21,000 compounds.

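Each compound is printed as two spots on a slide made to bind it covalently, so it has no test concentration; the read-out is fluorescence of the bound, labelled oligonucleotide. For the PreQ1, TPP and SAM-II riboswitches the laboratory earlier reported (doi:10.1038/s41467-019-09493-3) 1 µM RNA, 2 h, and a rule that included a mean Z-score above 3 (spot signal-to-noise against the whole library), a score well above that on a control array, and duplicate spots agreeing (coefficient of variation under 100). The data file gives only the calls; its cut-offs may differ, and compounds hitting several targets are kept. These are primary screening calls, not affinities; a compound without a hit may have attached poorly or may still bind in solution.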 A compound is marked hit if it was called a hit and none if it was screened but was not. This is an unselected part of the compounds tested. A target missing from an entry has no call listed here. A dash means that no call is listed here.

structure | TPP | PreQ1 | SAM-II
Cc1cc(C)cc(NC(=O)Cn2c(-c3nonc3N)nc3ccccc32)c1 | none | none | none
O=C(CCCO)NCCc1nc2ccccc2n1Cc1ccccc1Cl | none | none | -
CC(O)c1nc2cc(-c3ccc(Cl)cc3)ccc2[nH]1 (stereo not given) | none | none | none
COc1ccc(-c2noc(Nc3ccc4c(c3)OCCO4)n2)cc1OC | none | none | -
Cc1ccc(NCc2nc3ccccc3n2CCOc2ccccc2)cc1 | none | none | none
N#CC1=C(N)OC2=C(C(=O)CCC2)C1c1cccc2ccccc12 (stereo not given) | none | none | none
CSc1nc(-c2cccc(Cl)c2)nc2c1Cc1c(CO)cnc(C)c1O2 | none | none | -
CCCCOC(=O)c1ccc(NCCC(=O)c2cccc([N+](=O)[O-])c2)cc1 | none | none | none
CC[C@@]1(O)CCN(c2ccnc3ccc(Cl)cc23)C[C@H]1O | none | none | none
Cc1ccc([C@@H]2C[C@H](c3ccccc3Cl)n3nc(N)nc3N2)cc1 | none | none | none
COc1c(C)cnc(CNc2nccc(N3CCCC(O)C3)n2)c1C (stereo not given) | none | none | none
O=C1OCCCN1CCNc1nccc(N2CCN[C@H]3CS(=O)(=O)C[C@H]32)n1 | none | none | none
CCc1ncc(C(=O)N[C@@H](c2ccccc2)[C@H](O)c2ccccc2)cn1 | none | none | none
c1cc2c(cc1CNCc1cc(-c3ccc4c(c3)OCO4)no1)OCO2 | none | none | none
CCC1(C)CC(CCNCc2ccc(N(C)C)cc2)(c2ccc(OC)cc2)CCO1 (stereo not given) | none | none | none
N#CC1=C(N)Oc2c(c(=O)sc3ccccc23)C1c1ccc(Br)cc1 (stereo not given) | none | none | none
CCCCSCc1cc(C(=O)N2C[C@H]3C[C@H](O)[C@@H](O)C[C@H]3C2)oc1C | none | none | none
C=C1C(=CC=C2CCC[C@]3(C)[C@@H]([C@H](C)CCCC(C)(C)O)CC[C@@H]23)C[C@@H](O)C[C@@H]1O | none | none | none
Cc1ccc2ncnc(Nc3ccc(C)c(C)c3)c2c1 | none | none | none
Cc1cc(CC(=O)N2C[C@H](c3ccccc3)[C@@H](N)C2)on1 | none | none | none
OCC1COCCN1Cc1c[nH]nc1-c1ccc(-c2ccccc2)cc1 (stereo not given) | none | none | none
Cc1ccc2c(c1)C(=C(C#N)C#N)CCN2 | none | none | none
Nc1nc(N2CCN(C(=O)c3cnn[nH]3)CC(O)C2)c2nc[nH]c2n1 (stereo not given) | none | none | none
CC1(Cc2ccc3c(c2)OCO3)CCCN(Cc2cccnc2N)C1 (stereo not given) | none | none | none
Cc1ccccc1N1CCN(Cc2c(C)nn(CCO)c2C)C(C)C1 (stereo not given) | none | none | none
NCCn1cc(C(=O)NC(c2ccncc2)c2ccc(F)cc2)nn1 (stereo not given) | none | none | none
OCC1(Cc2ccccc2)CCCN(c2ncccc2Cl)C1 (stereo not given) | none | none | none
Fc1cccc(CCNc2nc(-c3cccnc3)nc3c2CCNCC3)c1 | none | none | none
CCc1nccn1CCCNC[C@]1(O)CCCN2CCCC[C@@H]21 | none | none | none
Cc1ccc(OCCNC(=O)[C@H]2CNC[C@H](C(=O)N3CCCC3)C2)cc1C | none | none | none
COc1cccc(CNCCc2cccc(F)c2)c1 | none | none | none
COc1ccc([N+](=O)[O-])cc1NC(=O)CCN1CCN(CCO)CC1 | none | none | none
Cc1cc(-n2nc(CCc3ccccc3)nc2[C@H](O)c2ccccc2)ccn1 | none | none | none
O=C(O)C=Cc1ccc(Cn2ccnc2)cc1 | none | none | none
CS(=O)(=O)c1cccc(CNc2nc(Nc3ccc4c(c3)CCC(=O)N4)ncc2C(F)(F)F)c1 | none | none | none
O=C(c1ccc2nc(-c3ccccc3)cn2c1)N1Cc2cnn(CCO)c2C1 | none | none | none
Nc1nc(Nc2ccc(S(N)(=O)=O)cc2)nn1C(=O)c1c(F)cccc1F | none | none | none
C=CCc1ccccc1Oc1cc(F)nc(N)n1 | none | none | none
COc1ccnc(CN2CCC3(CC2)CNC(C(=O)O)C3)c1 (stereo not given) | none | none | none
Cc1nnc(NC(=O)c2cccc(N)c2)s1 | none | none | none
CC(=O)Nc1ccc(C2=CC(c3ccccc3Cl)n3nc(CCCO)nc3N2)cc1 (stereo not given) | none | none | none
CC(C)N(CCCc1ccccc1)C(=O)C1(N)CC1 | none | none | none
CN(C)CCN(C)C[C@@H]1CN(C(=O)c2cccn2C)C[C@@H]1CO | none | none | none
CC(C)NCCn1c(-c2ccc(Br)cc2)cn2c3ccccc3nc12 | none | none | none
CCC(C)Nc1cc(C)nc2cc(-c3ccccc3OC)nn12 (stereo not given) | none | none | -
COc1ccc(NCN2C(=O)C3C4C=CC(C4)C3C2=O)cc1 (stereo not given) | none | none | none
COc1ccccc1C1C(C#N)=C(N)Oc2cc3ccccc3cc21 (stereo not given) | none | none | none
N#Cc1c(-c2cccn2-c2ncccn2)cc(-c2ccc(O)cc2)nc1N | none | none | none
C1=CC2(CCN(Cc3cc4n(n3)CCNC4)CC2)c2ccccc21 | none | none | none
CCOC(=O)c1c(N)n(-c2ccc(C)cc2)c2nc3ccccc3nc12 | none | none | none
Cc1n[nH]c2c1C(c1ccoc1)C(C#N)=C(N)O2 (stereo not given) | none | none | none
CN1C[C@H](NC(=O)CN2CCOc3ccccc3C2)C[C@H]1CO | none | none | none
COc1cccc(CN2c3ccccc3C3=C(C(c4ccccc4)C(C#N)=C(N)O3)S2(=O)=O)c1 (stereo not given) | none | none | -
Cc1ccc(CN2c3ccccc3C3=C(C(c4ccc(F)cc4)C(C#N)=C(N)O3)S2(=O)=O)cc1 (stereo not given) | none | none | -
CC1=C(C(=O)OCc2ccccc2)C2(C(=O)Nc3ccccc32)C(C(=O)OC(C)C)=C(N)O1 (stereo not given) | none | none | none
COc1ccccc1Nc1nc(C2(C)CCC(=O)O2)cs1 (stereo not given) | none | none | none
O=C1NCCN2CCN(C(=O)c3ccccc3NCc3ccccn3)CC12 (stereo not given) | none | none | none
O=C(/C=C/c1ccccc1Cl)c1ccc(O)cc1 | none | none | none
Cc1nc2ccccc2nc1NS(=O)(=O)c1ccc(N)cc1 | none | none | none
Cc1cc(C)nc(N2CCC(NCC(CO)Cc3ccsc3)CC2)n1 (stereo not given) | none | none | none
CCC(O)Cn1nc(C)nc1-c1ccc(SC)cc1 (stereo not given) | none | none | none
O=C1CC(Nc2ccc(N3CCOCC3)cc2)C(=O)N1c1ccccc1F (stereo not given) | none | none | none
Cc1ccc(C)c2c(O)cc(CNCCCOc3cccnc3)nc12 | none | none | none
CCn1c2ccccc2c2cc(CN3CCNCC3)ccc21 | none | none | none
O=C(CC(c1ccccc1)c1ccccc1F)NCC1(CO)CCOCC1 (stereo not given) | none | none | none
C=CC[C@@H]1/C=C(/C)C[C@H](C)C[C@H](OC)[C@H]2O[C@@](O)(C(=O)C(=O)N3CCCC[C@H]3C(=O)O[C@H](C(C)=C[C@@H]3CC[C@H](O)[C@H](OC)C3)[C@@H](C)[C@@H](O)CC1=O)[C@@H](C)C[C@@H]2OC | none | none | none
O=C(N[C@H]1CN[C@H](C(=O)NCCCn2ccnc2)C1)c1cccc(Cl)c1 | none | none | none
CC(=O)C1(c2ccccc2)CCN(C(=O)CCN2CCNCC2)CC1 | none | none | none
CCOC(=O)c1c(-c2cccs2)csc1N | none | none | -
Nc1cc2ccccc2oc1=O | none | none | none
CN(C)c1ccc(NC2CC(=O)N(c3cccc4ccccc34)C2=O)cc1 (stereo not given) | none | none | none
Cn1c(SCCO)nc2c(c1=O)C1(CCCCC1)Cc1ccccc1-2 | none | none | -
Cc1nc(N2CCN(CCO)CC2)nc2c1C(=O)CC(c1ccccc1O)C2 (stereo not given) | none | none | none
CCNC(=O)N1CCC(NC(C)Cn2nc(C)c(Cl)c2C)CC1 (stereo not given) | none | none | none
Cc1ccccc1CNc1ccc(N2CCOCC2)c(C(=O)O)c1 | none | none | none
O=C(Nc1ccccc1-c1ccccc1)C(=O)Nc1ccccc1-c1ccccc1 | none | none | none
CCOC(=O)N1CCN(c2c(NCCN3CCN(c4cccc(Cl)c4)CC3)c(=O)c2=O)CC1 | none | none | -

The first 6 entries again:

{"structure": "Cc1cc(C)cc(NC(=O)Cn2c(-c3nonc3N)nc3ccccc32)c1", "TPP": "none", "PreQ1": "none", "SAM-II": "none"}
{"structure": "O=C(CCCO)NCCc1nc2ccccc2n1Cc1ccccc1Cl", "TPP": "none", "PreQ1": "none"}
{"structure": "CC(O)c1nc2cc(-c3ccc(Cl)cc3)ccc2[nH]1", "stereo": "stereo not given", "TPP": "none", "PreQ1": "none", "SAM-II": "none"}
{"structure": "COc1ccc(-c2noc(Nc3ccc4c(c3)OCCO4)n2)cc1OC", "TPP": "none", "PreQ1": "none"}
{"structure": "Cc1ccc(NCc2nc3ccccc3n2CCOc2ccccc2)cc1", "TPP": "none", "PreQ1": "none", "SAM-II": "none"}
{"structure": "N#CC1=C(N)OC2=C(C(=O)CCC2)C1c1cccc2ccccc12", "stereo": "stereo not given", "TPP": "none", "PreQ1": "none", "SAM-II": "none"}

Source: the ROBIN nucleic acid binder screens (doi:10.1002/anie.202211358).